According to article doi:10.1101/2020.01.24.918458:
Results are given in words; binding and its absence hold for the method and conditions named. Binding seen in cells or lysates may run through a third protein. These calls come from enrichment with a bait or labelling near it, and not all partners need be listed. No binding means not detected with the bait.

Amino acid sequences for entries named in this document (tags omitted).
UniProt Q99JW4: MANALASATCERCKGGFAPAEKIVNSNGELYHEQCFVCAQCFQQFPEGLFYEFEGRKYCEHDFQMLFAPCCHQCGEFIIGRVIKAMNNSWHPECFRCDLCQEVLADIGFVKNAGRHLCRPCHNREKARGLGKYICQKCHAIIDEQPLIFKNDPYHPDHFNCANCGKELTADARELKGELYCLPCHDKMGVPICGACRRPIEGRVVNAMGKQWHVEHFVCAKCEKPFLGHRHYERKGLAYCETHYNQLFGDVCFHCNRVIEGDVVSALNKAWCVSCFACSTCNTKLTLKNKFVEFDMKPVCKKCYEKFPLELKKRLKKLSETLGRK

Key:
Test in all cases: proximity labelling
[1] = target: T1, ILK (not stated (mouse and non-mouse baits used)) (UniProt O55222)
T1 sequence: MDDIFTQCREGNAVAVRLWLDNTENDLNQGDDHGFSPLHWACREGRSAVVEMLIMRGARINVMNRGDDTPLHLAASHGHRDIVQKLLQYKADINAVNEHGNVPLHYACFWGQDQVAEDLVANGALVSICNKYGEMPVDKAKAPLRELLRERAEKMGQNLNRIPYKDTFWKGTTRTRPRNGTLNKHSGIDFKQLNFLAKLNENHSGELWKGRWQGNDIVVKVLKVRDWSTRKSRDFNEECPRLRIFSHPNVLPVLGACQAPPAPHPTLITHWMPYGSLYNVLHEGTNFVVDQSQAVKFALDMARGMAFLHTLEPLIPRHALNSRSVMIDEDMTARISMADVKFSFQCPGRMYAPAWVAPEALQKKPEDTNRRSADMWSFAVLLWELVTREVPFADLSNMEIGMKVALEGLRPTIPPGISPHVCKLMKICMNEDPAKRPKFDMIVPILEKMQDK

[2] = target: PINCH (not stated (mouse and non-mouse baits used)) (UniProt Q99JW4)
[3] = target: T2, α-parvin (not stated (mouse and non-mouse baits used)) (UniProt Q9EPC1)
T2 sequence: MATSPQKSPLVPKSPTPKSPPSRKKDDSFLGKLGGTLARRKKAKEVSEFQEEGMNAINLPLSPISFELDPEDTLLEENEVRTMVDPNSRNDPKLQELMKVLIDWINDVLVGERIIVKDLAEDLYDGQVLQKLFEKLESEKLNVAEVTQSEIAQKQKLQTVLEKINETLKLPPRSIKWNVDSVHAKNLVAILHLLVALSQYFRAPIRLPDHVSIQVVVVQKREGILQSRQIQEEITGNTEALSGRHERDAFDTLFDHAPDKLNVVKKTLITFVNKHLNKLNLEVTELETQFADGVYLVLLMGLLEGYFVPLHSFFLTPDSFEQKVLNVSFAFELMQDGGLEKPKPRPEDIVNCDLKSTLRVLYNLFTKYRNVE

B1: α-parvin (protein, UniProt Q9EPC1 1-372)
chain: MATSPQKSPLVPKSPTPKSPPSRKKDDSFLGKLGGTLARRKKAKEVSEFQEEGMNAINLPLSPISFELDPEDTLLEENEVRTMVDPNSRNDPKLQELMKVLIDWINDVLVGERIIVKDLAEDLYDGQVLQKLFEKLESEKLNVAEVTQSEIAQKQKLQTVLEKINETLKLPPRSIKWNVDSVHAKNLVAILHLLVALSQYFRAPIRLPDHVSIQVVVVQKREGILQSRQIQEEITGNTEALSGRHERDAFDTLFDHAPDKLNVVKKTLITFVNKHLNKLNLEVTELETQFADGVYLVLLMGLLEGYFVPLHSFFLTPDSFEQKVLNVSFAFELMQDGGLEKPKPRPEDIVNCDLKSTLRVLYNLFTKYRNVE
- binding [1]: binds
- binding [2]: binds

B2: liprin-β1 (protein, UniProt Q8C8U0 1-969)
chain: MMSDASDMLAAALEQMDGIIAGSKALEYSNGIFDCQSPTSPFMGSLRALHLVEDLRGLLEMMETDEKEGLRCQIPDSTAEVLIEWLQNQMTNGHLPGNGDVYQERLARLENDKESLVLQVSVLTDQVEAQGEKIRDLEFCLEEHREKLNATEEMLQQELLSRTSLETQKLELMAEISNLKLKLTAVEKDRLDYEDRFRDTEGLIQEINDLRLKVNEMDGERLQYEKKLKSTKDELASLKEQLEEKECEVKRLQERLVCKAKGEGIEVLDRDIEVQKMKKAVESLMAANEEKERKIEDLRQCLSRYRKMQDPAVLAQGQDSECEGLFHSSSISTLLDAQGFSDLERSTSSTPGMGSPSRDLLHTSAPEEFHTSVLQASIPSLLPPSVDVDTCEKPKLPTKPETSFEEGDGRAILGAAAEVSLSDGVSTSSLQKSSSLGNLKKEASDGTDKAPTDSRTFGTLPPKVPGHEASVDDNPFGTRKARSSFGRGFFKIKSGKRTASAPNLAETEKETAEHLNLAGTSRSKGSQGTSPFPMSPPSPDSRKKSRGIMRLFGKLRRSQSTTFNPDDMSEPEFKRGGTRATAGPRLGWSRDLGQSNSDLDMPFAKWTKEQVCSWLAEQGLGSYLSSGKHWIISGQTLLQASQQDLEKELGIKHSLHRKKLQLALQALGSEEETNYGKLDFNWVTRWLDDIGLPQYKTQFDEGRVDGRMLHYMTVDDLLSLKVVSVLHHLSIKRAIQVLRINNFEPNCLRRRPSDENSITPSEVQQWTNHRVMEWLRSVDLAEYAPNLRGSGVHGGLMVLEPRFNVETMAQLLNIPPNKTLLRRHLATHFNLLIGAEAQHQKRDAMELPDYVLLTATAKVKPKKLTFSNFGNLRKKKHEDGEEYVCPMELGQASGSSQKGFRPGLDMRLYEEDDLDRLEQMEDSEGTVRQIGAFSEGINNLTHMLKEDDMFKDFAARSPSASITDEDSNV
- binding [3]: binds

B3: GIT1 (protein, UniProt Q68FF6 1-770)
chain: MSRKGPRAEVCADCSAPDPGWASISRGVLVCDECCSVHRSLGRHISIVKHLRHSAWPPTLLQMVHTLASNGANSIWEHSLLDPAQVQSGRRKANPQDKVHPIKSEFIRAKYQMLAFVHKLPCRDDDGVTAKDLSKQLHSSVRTGNLETCLRLLSLGAQANFFHPEKGTTPLHVAAKAGQTLQAELLVVYGADPGSPDVNGRTPIDYARQAGHHELAERLVECQYELTDRLAFYLCGRKPDHKNGHYIIPQMADRSRQKCMSQSLDLSELAKAAKKKLQALSNRLFEELAMDVYDEVDRRENDAVWLATQNHSTLVTERSAVPFLPVNPEYSATRNQGRQKLARFNAREFATLIIDILSEAKRRQQGKSLSSPTDNLELSARSQSELDDQHDYDSVASDEDTDQEPLPSAGATRNNRARSMDSSDLSDGAVTLQEYLELKKALATSEAKVQQLMKVNSSLSDELRRLQREIHKLQAENLQLRQPPGPVPPPSLPSERAEHTLMGPGGSTHRRDRQAFSMYEPGSALKPFGGTPGDELATRLQPFHSTELEDDAIYSVHVPAGLYRIRKGVSASSVPFTPSSPLLSCSQEGSRHASKLSRHGSGADSDYENTQSGDPLLGLEGKRFLELSKEDELHPELESLDGDLDPGLPSTEDVILKTEQVTKNIQELLRAAQEFKHDSFVPCSEKIHLAVTEMASLFPKRPALEPVRSSLRLLNASAYRLQSECRKTVPPEPGAPVDFQLLTQQVIQCAYDIAKAAKQLVTITTREKKQ
- binding [3]: no binding
- binding [1]: no binding
- binding [2]: no binding
